Laboratory results as given in the supplement of paper PMC8728848.
The list shows a part of the results.

Assays:
Experiment in all cases: glycan array binding signal (z-score within array); higher = stronger binding
Conditions in all cases: glycan notation: IUPAC condensed, linker removed
[1] = target: Neu5Ac(a2-3)Gal(b1-3)GlcNAc(b1-6)GalNAc
Outline: (§1)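 Glycan array binding is given as a within-array Z-score, which can be read as non-binding when negative. The arrays, 3228 of them, came from the Consortium for Functional Glycomics database and were retained only where the protein sequence was available. Z-scores were averaged across arrays of the same protein sequence at different concentrations or buffers and across linkers.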

[2] = target: Neu5Ac(a2-3)Gal(b1-3)GlcNAc6S
Outline: as §1

[3] = target: Neu5Ac(a2-3)Gal(b1-3)[Fuc(a1-4)]GlcNAc
Outline: as §1

[4] = target: Neu5Ac(a2-3)Gal(b1-3)[Fuc(a1-4)]GlcNAc(b1-3)Gal(b1-3)[Fuc(a1-4)]GlcNAc
Outline: as §1

[5] = target: Neu5Ac(a2-3)Gal(b1-3)[Fuc(a1-4)]GlcNAc(b1-3)Gal(b1-4)[Fuc(a1-3)]GlcNAc
Outline: as §1

[6] = target: Neu5Ac(a2-3)Gal(b1-3)[GlcNAc(b1-6)]GalNAc
Outline: as §1

[7] = target: Neu5Ac(a2-3)Gal(b1-3)[Neu5Ac(a2-6)]GalNAc
Outline: as §1

[8] = target: Neu5Ac(a2-3)Gal(b1-3)[Neu5Ac(a2-6)]GlcNAc(b1-3)[Fuc(a1-3)[Gal(b1-4)]GlcNAc(b1-6)]Gal(b1-4)Glc
Outline: as §1

[9] = target: Neu5Ac(a2-3)Gal(b1-3)]Neu5Ac(a2-3)Gal(b1-4)]GlcNAc
Outline: as §1

[10] = target: Neu5Ac(a2-3)Gal(b1-4)Glc
Outline: as §1

[11] = target: Neu5Ac(a2-3)Gal(b1-4)GlcNAc
Outline: as §1

[12] = target: Neu5Ac(a2-3)Gal(b1-4)GlcNAc(b1-2)Man
Outline: as §1

[13] = target: Neu5Ac(a2-3)Gal(b1-4)GlcNAc(b1-2)Man(a1-3)[GlcNAc(b1-4)][Neu5Ac(a2-3)Gal(b1-4)GlcNAc(b1-2)Man(a1-6)]Man(b1-4)GlcNAc(b1-4)GlcNAc
Outline: as §1

[14] = target: Neu5Ac(a2-3)Gal(b1-4)GlcNAc(b1-2)Man(a1-3)[Neu5Ac(a2-3)Gal(b1-4)GlcNAc(b1-2)Man(a1-6)]Man(b1-4)GlcNAc(b1-4)GlcNAc
Outline: as §1

[15] = target: Neu5Ac(a2-3)Gal(b1-4)GlcNAc(b1-2)Man(a1-3)[Neu5Ac(a2-3)Gal(b1-4)GlcNAc(b1-2)Man(a1-6)]Man(b1-4)GlcNAc(b1-4)[Fuc(a1-6)]GlcNAc
Outline: as §1

[16] = target: Neu5Ac(a2-3)Gal(b1-4)GlcNAc(b1-2)Man(a1-3)[Neu5Ac(a2-6)Gal(b1-4)GlcNAc(b1-2)Man(a1-6)]Man(b1-4)GlcNAc(b1-4)GlcNAc
Outline: as §1

[17] = target: Neu5Ac(a2-3)Gal(b1-4)GlcNAc(b1-2)[Neu5Ac(a2-3)Gal(b1-4)GlcNAc(b1-4)]Man(a1-3)[GlcNAc(b1-4)][Neu5Ac(a2-3)Gal(b1-4)GlcNAc(b1-2)[Neu5Ac(a2-3)Gal(b1-4)GlcNAc(b1-6)]Man(a1-6)]Man(b1-4)GlcNAc(b1-4)GlcNAc
Outline: as §1

[18] = target: Neu5Ac(a2-3)Gal(b1-4)GlcNAc(b1-2)[Neu5Ac(a2-3)Gal(b1-4)GlcNAc(b1-4)]Man(a1-3)[GlcNAc(b1-4)][Neu5Ac(a2-3)Gal(b1-4)GlcNAc(b1-4)Man(a1-6)]Man(b1-4)GlcNAc(b1-4)GlcNAc
Outline: as §1

[19] = target: Neu5Ac(a2-3)Gal(b1-4)GlcNAc(b1-2)[Neu5Ac(a2-3)Gal(b1-4)GlcNAc(b1-6)]Man(a1-6)[Neu5Ac(a2-3)Gal(b1-4)GlcNAc(b1-2)Man(a1-3)][GlcNAc(b1-4)]Man(b1-4)GlcNAc(b1-4)GlcNAc
Outline: as §1

[20] = target: Neu5Ac(a2-3)Gal(b1-4)GlcNAc(b1-3)Gal
Outline: as §1

[21] = target: Neu5Ac(a2-3)Gal(b1-4)GlcNAc(b1-3)Gal(b1-3)GlcNAc
Outline: as §1

[22] = target: Neu5Ac(a2-3)Gal(b1-4)GlcNAc(b1-3)Gal(b1-4)GlcNAc
Outline: as §1

[23] = target: Neu5Ac(a2-3)Gal(b1-4)GlcNAc(b1-3)Gal(b1-4)GlcNAc(b1-2)Man(a1-3)[Neu5Ac(a2-3)Gal(b1-4)GlcNAc(b1-3)Gal(b1-4)GlcNAc(b1-2)Man(a1-6)]Man(b1-4)GlcNAc(b1-4)GlcNAc
Outline: as §1

[24] = target: Neu5Ac(a2-3)Gal(b1-4)GlcNAc(b1-3)Gal(b1-4)GlcNAc(b1-3)Gal(b1-4)GlcNAc
Outline: as §1

[25] = target: Neu5Ac(a2-3)Gal(b1-4)GlcNAc(b1-3)Gal(b1-4)GlcNAc(b1-3)Gal(b1-4)GlcNAc(b1-2)Man(a1-3)[Neu5Ac(a2-3)Gal(b1-4)GlcNAc(b1-3)Gal(b1-4)GlcNAc(b1-3)Gal(b1-4)GlcNAc(b1-2)Man(a1-6)]GalNAc
Outline: as §1

[26] = target: Neu5Ac(a2-3)Gal(b1-4)GlcNAc(b1-3)Gal(b1-4)GlcNAc(b1-3)GalNAc
Outline: as §1

[27] = target: Neu5Ac(a2-3)Gal(b1-4)GlcNAc(b1-3)Gal(b1-4)GlcNAc(b1-3)[Neu5Ac(a2-3)Gal(b1-4)GlcNAc(b1-3)Gal(b1-4)GlcNAc(b1-6)]GalNAc
Outline: as §1

[28] = target: Neu5Ac(a2-3)Gal(b1-4)GlcNAc(b1-3)Gal(b1-4)GlcNAc(b1-6)[Gal(b1-3)]GalNAc
Outline: as §1

[29] = target: Neu5Ac(a2-3)Gal(b1-4)GlcNAc(b1-3)Gal(b1-4)[Fuc(a1-3)]GlcNAc
Outline: as §1

[30] = target: Neu5Ac(a2-3)Gal(b1-4)GlcNAc(b1-3)GalNAc
Outline: as §1

[31] = target: Neu5Ac(a2-3)Gal(b1-4)GlcNAc(b1-3)[Neu5Ac(a2-3)Gal(b1-4)GlcNAc(b1-6)]GalNAc
Outline: as §1

[32] = target: Neu5Ac(a2-3)Gal(b1-4)GlcNAc(b1-6)GalNAc
Outline: as §1

[33] = target: Neu5Ac(a2-3)Gal(b1-4)GlcNAc(b1-6)[Gal(b1-3)]GalNAc
Outline: as §1

[34] = target: Neu5Ac(a2-3)Gal(b1-4)GlcNAc(b1-6)[Neu5Ac(a2-3)Gal(b1-3)]GalNAc
Outline: as §1

[35] = target: Neu5Ac(a2-3)Gal(b1-4)GlcNAc6S
Outline: as §1

[36] = target: Neu5Ac(a2-3)Gal(b1-4)[Fuc(a1-3)]GlcNAc
Outline: as §1

[37] = target: Neu5Ac(a2-3)Gal(b1-4)[Fuc(a1-3)]GlcNAc(b1-2)Man
Outline: as §1

[38] = target: Neu5Ac(a2-3)Gal(b1-4)[Fuc(a1-3)]GlcNAc(b1-3)Gal
Outline: as §1

[39] = target: Neu5Ac(a2-3)Gal(b1-4)[Fuc(a1-3)]GlcNAc(b1-3)Gal(b1-4)GlcNAc
Outline: as §1

[40] = target: Neu5Ac(a2-3)Gal(b1-4)[Fuc(a1-3)]GlcNAc(b1-3)Gal(b1-4)[Fuc(a1-3)]GlcNAc(b1-3)Gal(b1-4)[Fuc(a1-3)]GlcNAc
Outline: as §1

[41] = target: Neu5Ac(a2-3)Gal(b1-4)[Fuc(a1-3)]GlcNAc(b1-3)GalNAc
Outline: as §1

[42] = target: Neu5Ac(a2-3)Gal(b1-4)[Fuc(a1-3)]GlcNAc(b1-6)[Gal(b1-3)]GalNAc
Outline: as §1

[43] = target: Neu5Ac(a2-3)Gal(b1-4)[Fuc(a1-3)]GlcNAc(b1-6)[Neu5Ac(a2-3)Gal(b1-3)]GalNAc
Outline: as §1

[44] = target: Neu5Ac(a2-3)Gal(b1-4)[Fuc(a1-3)]GlcNAc6S
Outline: as §1

[45] = target: Neu5Ac(a2-3)Gal6S(b1-4)GlcNAc
Outline: as §1

B1: Erv41-EDTA (Saccharomyces cerevisiae), Q04651 (protein)
chain: MKFLVNVALVFMVVYISYIYAAAPEHHHHHHDYDIPTTENLYFQGAMGYIDQQYVVDSQVRDTVQINMDIYVNTKCDWLQINVRDQTMDRKLVLEELQLEEMPFFIPYDTKVNDINEIITPELDEILGEAIPAEFREKLDTRSFFDESDPNKAHLPEFNGCHVFGSIPVNRVSGELQITAKSLGYVASRKAPLEELKFNHVINEFSFGDFYPYIDNPLDNTAQFNQDEPLTTYVYYTSVVPTLFKKLGAEVDTNQYSVNDYRYLYKDVAAKGDKMPGIFFKYNFEPLSIVVSDVRL
In the case of B1, the “glycan array binding signal (z-score)” value [1] is reported as 0.614, the “glycan array binding signal (z-score)” value [2] is reported as 0.137 and the “glycan array binding signal (z-score)” value [3] is reported as -0.387. The “glycan array binding signal (z-score)” value [4] was 0.337, the “glycan array binding signal (z-score)” value [5] was -0.03 and the “glycan array binding signal (z-score)” value [6] was -0.386. The “glycan array binding signal (z-score)” value [7] was -0.609, the “glycan array binding signal (z-score)” value [8] was 0.557 and the “glycan array binding signal (z-score)” value [9] was -0.585. The “glycan array binding signal (z-score)” value [10] was -1.16, the “glycan array binding signal (z-score)” value [11] was -0.795 and the “glycan array binding signal (z-score)” value [12] was -0.089. For the same binder, the “glycan array binding signal (z-score)” value [13] was -0.37, the “glycan array binding signal (z-score)” value [14] was -0.57 and the “glycan array binding signal (z-score)” value [15] was 2.09. The “glycan array binding signal (z-score)” value [16] was 0.453, the “glycan array binding signal (z-score)” value [17] was 1.18 and the “glycan array binding signal (z-score)” value [18] was -0.72. The “glycan array binding signal (z-score)” value [19] was 0.255, the “glycan array binding signal (z-score)” value [20] was -0.318 and the “glycan array binding signal (z-score)” value [21] was 0.192. The “glycan array binding signal (z-score)” value [22] was -0.066, the “glycan array binding signal (z-score)” value [23] was 0.362 and the “glycan array binding signal (z-score)” value [24] was -1.18. The “glycan array binding signal (z-score)” value [25] was 1.38, the “glycan array binding signal (z-score)” value [26] was 0.658 and the “glycan array binding signal (z-score)” value [27] was 1.02. The “glycan array binding signal (z-score)” value [28] was 0.253, the “glycan array binding signal (z-score)” value [29] was 0.856 and the “glycan array binding signal (z-score)” value [30] was -0.185. The “glycan array binding signal (z-score)” value [31] was 0.548, the “glycan array binding signal (z-score)” value [32] was -0.767 and the “glycan array binding signal (z-score)” value [33] was -0.279. For the same binder, the “glycan array binding signal (z-score)” value [34] was -0.083, the “glycan array binding signal (z-score)” value [35] was -0.522 and the “glycan array binding signal (z-score)” value [36] was 0.162. For the same binder, the “glycan array binding signal (z-score)” value [37] was -0.111, the “glycan array binding signal (z-score)” value [38] was -0.263 and the “glycan array binding signal (z-score)” value [39] was 1.15. The “glycan array binding signal (z-score)” value [40] was 0.405, the “glycan array binding signal (z-score)” value [41] was 1.5 and the “glycan array binding signal (z-score)” value [42] was 0.537. For the same binder, the “glycan array binding signal (z-score)” value [43] was 0.921, the “glycan array binding signal (z-score)” value [44] was -0.457 and the “glycan array binding signal (z-score)” value [45] was 0.025.
